Laboratory results: patent publication US20030105095A1 (CHEIL JEDANG Corporation, priority 2001, published 2003)
At least one structure is not confirmed: it was looked up by name or label, or the drawing left a doubt.

What was measured:
cyclooxygenase-1 = molecular target: T1, cyclooxygenase-1 (Mus musculus, UniProt P22437); assay: Cyclooxygenase-1 inhibition in mouse peritoneal macrophages (PGE2 ELISA); type: cell-based; conditions: in words, versus SC-58635
T1 construct: endogenous in cells; host or cells: primary mouse peritoneal macrophages (unstimulated)
T1 sequence (P22437 27-602): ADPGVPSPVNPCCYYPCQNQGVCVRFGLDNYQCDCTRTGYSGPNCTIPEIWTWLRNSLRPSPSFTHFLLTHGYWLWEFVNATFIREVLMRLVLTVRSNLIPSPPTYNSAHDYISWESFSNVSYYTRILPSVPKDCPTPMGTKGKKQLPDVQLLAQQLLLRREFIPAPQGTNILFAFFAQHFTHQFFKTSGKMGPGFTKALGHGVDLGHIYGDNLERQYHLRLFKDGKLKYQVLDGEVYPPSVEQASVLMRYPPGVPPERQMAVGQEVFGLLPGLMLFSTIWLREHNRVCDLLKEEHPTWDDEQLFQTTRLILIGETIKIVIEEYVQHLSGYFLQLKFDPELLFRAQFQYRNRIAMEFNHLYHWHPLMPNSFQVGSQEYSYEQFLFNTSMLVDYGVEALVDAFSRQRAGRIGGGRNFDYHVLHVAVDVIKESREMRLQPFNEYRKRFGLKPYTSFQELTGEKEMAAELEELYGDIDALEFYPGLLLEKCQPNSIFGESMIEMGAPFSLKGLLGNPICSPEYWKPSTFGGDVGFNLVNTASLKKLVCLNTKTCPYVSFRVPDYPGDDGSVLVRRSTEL
Experimental: First of all, the cyclooxygenase-1 was examined through the following procedure.
(§1) Peritoneal fluid in which macrophages were suspended was extracted from a mouse peritoneal cavity and centrifuged at 4° C., 1,000 rpm for 2 minutes. Then, the supernatant was removed, suspended using 20 ml of incomplete RPMI medium [including PC/SM (penicilin/streptomycin)] and again centrifuged under the same condition. […] Then, the cell number was calculated with the hemocytometer and adjusted to reach 1×10^6 cells/ml of cell concentration in the final cell suspension. The resulting suspension was poured into each well of 96-well plate and left with the incubator at 37° C. in 5% CO2 for about 2 hours in order to attach macrophages. […] The resulting cell was cultivated with the incubator at 37° C. in 5% CO2 for about 12˜16 hours. Then, arachidonic acid was added, adjusting to 10 μM of a final concentration and incubated at 37° C. for more 10 minutes and the supernatant of the reacted solution (˜180 μl) was recovered to finish the reaction.

cyclooxygenase-2 = molecular target: T2, cyclooxygenase-2 (Mus musculus, UniProt Q05769); assay: Cyclooxygenase-2 inhibition in aspirin-treated, LPS-induced mouse peritoneal macrophages (PGE2 ELISA); type: cell-based; conditions: in words
T2 construct: blended with 3% FBS-RPMI 1640 medium containing 10 μg/ml of LPS in each well; endogenous in cells; host or cells: primary mouse peritoneal macrophages, pretreated with 500 μM aspirin and induced with LPS
T2 sequence (Q05769 18-604): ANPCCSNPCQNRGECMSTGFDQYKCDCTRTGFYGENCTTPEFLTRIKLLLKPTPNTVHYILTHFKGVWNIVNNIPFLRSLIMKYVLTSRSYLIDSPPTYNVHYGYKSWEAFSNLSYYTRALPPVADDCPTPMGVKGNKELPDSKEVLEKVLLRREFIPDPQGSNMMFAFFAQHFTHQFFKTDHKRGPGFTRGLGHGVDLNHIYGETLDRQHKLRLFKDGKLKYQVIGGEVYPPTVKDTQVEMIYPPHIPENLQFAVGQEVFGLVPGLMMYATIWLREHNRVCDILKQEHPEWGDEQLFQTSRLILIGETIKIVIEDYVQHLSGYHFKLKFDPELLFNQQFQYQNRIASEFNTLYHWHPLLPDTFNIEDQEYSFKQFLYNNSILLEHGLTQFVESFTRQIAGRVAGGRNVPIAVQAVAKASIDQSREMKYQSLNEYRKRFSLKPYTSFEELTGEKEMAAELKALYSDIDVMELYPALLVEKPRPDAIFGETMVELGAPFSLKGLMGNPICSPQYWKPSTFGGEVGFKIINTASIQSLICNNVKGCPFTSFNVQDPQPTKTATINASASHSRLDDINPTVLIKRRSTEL
Experimental: Second, the cyclooxygenase-2 was examined through the following procedure.
as §1, with “RPMI medium [PC/SM (penicilin/streptomycin)] and” for “RPMI medium [including PC/SM (penicilin/streptomycin)] and”, “suspension was treated with aspirin, adjusting 500 μM of final concentration and poured into” for “suspension was poured into”, “96-well plate in 100 μl respectively. Again, it was left with” for “96-well plate and left with”

CCOc1ccc(-c2ccc(S(C)(=O)=O)cc2)cc1OCC [Example 2, 4′-methanesulfonyl-3,4-diethoxy-biphenyl]
inhibition effect against cyclooxygenase-1 compared with comparative substance (cyclooxygenase-1): in much lower level than a comparative substance | selectivity of cyclooxygenase-2 (cyclooxygenase-2; COX-2 over COX-1): better than any other substances | inhibition effect against cyclooxygenase-2 compared with comparative substance (cyclooxygenase-2; versus SC-58635): more excellent than a comparative substance
